Reference: the supplement of paper PMC10849652
The list shows a part of the results.

Chains of the proteins cited; added tags and fusions are not shown. Lines headed by an entry give the natural chain unless they say otherwise; changes in a name come on top.
UniProt O43752: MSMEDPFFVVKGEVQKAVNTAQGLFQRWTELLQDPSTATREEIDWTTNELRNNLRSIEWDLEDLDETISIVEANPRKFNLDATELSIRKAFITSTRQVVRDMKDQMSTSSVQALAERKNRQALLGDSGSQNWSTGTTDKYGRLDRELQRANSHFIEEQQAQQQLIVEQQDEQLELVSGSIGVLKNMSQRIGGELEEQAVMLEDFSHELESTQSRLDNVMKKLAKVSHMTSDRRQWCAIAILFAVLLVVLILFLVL
UniProt Q16563: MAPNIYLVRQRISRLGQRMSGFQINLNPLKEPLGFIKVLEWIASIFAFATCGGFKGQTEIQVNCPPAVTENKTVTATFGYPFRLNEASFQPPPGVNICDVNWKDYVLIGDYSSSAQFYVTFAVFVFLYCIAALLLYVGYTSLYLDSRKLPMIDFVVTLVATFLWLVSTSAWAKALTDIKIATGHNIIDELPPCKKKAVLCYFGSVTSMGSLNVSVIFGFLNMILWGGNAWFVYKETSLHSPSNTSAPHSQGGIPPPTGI
UniProt Q8NBJ7: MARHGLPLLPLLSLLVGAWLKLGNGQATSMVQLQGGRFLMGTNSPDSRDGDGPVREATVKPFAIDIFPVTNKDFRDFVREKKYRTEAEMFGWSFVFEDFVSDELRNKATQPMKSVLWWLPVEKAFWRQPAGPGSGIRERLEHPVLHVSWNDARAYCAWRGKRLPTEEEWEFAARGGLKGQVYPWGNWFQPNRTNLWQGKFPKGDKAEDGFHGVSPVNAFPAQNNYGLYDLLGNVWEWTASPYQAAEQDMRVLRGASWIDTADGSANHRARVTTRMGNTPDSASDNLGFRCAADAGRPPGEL
UniProt Q8IYB8: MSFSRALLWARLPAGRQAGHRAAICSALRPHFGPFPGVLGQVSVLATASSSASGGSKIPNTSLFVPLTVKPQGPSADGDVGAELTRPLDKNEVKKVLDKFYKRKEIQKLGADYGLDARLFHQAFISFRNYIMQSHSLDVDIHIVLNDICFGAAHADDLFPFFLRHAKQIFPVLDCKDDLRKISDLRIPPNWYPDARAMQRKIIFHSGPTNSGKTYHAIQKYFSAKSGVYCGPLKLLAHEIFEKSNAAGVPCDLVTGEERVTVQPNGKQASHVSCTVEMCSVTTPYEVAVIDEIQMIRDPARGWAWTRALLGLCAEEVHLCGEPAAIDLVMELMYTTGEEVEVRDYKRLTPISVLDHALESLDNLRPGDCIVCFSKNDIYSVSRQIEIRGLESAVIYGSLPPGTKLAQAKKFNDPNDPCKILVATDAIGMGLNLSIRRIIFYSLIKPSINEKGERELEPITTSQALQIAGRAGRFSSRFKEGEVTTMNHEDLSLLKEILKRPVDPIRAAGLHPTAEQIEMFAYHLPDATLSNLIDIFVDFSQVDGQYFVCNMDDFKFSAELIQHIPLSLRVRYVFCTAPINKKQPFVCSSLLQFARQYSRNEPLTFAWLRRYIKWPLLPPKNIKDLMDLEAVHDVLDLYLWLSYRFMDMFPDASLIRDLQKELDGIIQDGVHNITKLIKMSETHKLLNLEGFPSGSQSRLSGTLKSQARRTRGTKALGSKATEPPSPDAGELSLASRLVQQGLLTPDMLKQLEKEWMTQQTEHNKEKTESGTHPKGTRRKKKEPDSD
UniProt P37802: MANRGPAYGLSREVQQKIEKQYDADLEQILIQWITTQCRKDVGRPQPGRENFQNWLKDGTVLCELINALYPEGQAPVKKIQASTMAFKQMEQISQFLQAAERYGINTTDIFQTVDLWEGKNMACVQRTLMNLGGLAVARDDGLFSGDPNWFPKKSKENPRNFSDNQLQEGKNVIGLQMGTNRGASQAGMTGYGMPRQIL
UniProt Q15633: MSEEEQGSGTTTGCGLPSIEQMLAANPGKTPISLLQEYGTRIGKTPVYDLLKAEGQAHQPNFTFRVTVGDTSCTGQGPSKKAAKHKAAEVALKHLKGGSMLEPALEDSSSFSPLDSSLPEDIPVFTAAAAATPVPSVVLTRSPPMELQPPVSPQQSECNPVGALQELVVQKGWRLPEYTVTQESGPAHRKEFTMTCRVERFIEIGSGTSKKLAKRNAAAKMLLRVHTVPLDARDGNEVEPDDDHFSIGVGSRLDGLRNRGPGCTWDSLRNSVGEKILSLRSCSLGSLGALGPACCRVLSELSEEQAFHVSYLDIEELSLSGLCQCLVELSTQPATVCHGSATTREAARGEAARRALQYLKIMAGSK
UniProt P61764, whole entry, looked up: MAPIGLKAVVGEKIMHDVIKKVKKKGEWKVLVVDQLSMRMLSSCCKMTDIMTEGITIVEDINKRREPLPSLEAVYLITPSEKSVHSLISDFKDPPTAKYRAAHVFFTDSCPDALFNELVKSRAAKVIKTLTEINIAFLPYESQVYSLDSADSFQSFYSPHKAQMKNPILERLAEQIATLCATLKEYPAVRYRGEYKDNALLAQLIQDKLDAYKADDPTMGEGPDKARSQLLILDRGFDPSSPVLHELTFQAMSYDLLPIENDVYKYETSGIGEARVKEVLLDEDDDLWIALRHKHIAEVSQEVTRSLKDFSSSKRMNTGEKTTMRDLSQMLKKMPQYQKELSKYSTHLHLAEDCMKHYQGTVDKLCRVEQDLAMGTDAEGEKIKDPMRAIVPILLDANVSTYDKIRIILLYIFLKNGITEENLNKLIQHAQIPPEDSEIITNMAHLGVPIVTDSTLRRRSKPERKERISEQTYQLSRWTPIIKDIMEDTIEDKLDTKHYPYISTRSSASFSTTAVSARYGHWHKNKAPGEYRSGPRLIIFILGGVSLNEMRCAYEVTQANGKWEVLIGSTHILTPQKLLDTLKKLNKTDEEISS
UniProt Q9UMZ2: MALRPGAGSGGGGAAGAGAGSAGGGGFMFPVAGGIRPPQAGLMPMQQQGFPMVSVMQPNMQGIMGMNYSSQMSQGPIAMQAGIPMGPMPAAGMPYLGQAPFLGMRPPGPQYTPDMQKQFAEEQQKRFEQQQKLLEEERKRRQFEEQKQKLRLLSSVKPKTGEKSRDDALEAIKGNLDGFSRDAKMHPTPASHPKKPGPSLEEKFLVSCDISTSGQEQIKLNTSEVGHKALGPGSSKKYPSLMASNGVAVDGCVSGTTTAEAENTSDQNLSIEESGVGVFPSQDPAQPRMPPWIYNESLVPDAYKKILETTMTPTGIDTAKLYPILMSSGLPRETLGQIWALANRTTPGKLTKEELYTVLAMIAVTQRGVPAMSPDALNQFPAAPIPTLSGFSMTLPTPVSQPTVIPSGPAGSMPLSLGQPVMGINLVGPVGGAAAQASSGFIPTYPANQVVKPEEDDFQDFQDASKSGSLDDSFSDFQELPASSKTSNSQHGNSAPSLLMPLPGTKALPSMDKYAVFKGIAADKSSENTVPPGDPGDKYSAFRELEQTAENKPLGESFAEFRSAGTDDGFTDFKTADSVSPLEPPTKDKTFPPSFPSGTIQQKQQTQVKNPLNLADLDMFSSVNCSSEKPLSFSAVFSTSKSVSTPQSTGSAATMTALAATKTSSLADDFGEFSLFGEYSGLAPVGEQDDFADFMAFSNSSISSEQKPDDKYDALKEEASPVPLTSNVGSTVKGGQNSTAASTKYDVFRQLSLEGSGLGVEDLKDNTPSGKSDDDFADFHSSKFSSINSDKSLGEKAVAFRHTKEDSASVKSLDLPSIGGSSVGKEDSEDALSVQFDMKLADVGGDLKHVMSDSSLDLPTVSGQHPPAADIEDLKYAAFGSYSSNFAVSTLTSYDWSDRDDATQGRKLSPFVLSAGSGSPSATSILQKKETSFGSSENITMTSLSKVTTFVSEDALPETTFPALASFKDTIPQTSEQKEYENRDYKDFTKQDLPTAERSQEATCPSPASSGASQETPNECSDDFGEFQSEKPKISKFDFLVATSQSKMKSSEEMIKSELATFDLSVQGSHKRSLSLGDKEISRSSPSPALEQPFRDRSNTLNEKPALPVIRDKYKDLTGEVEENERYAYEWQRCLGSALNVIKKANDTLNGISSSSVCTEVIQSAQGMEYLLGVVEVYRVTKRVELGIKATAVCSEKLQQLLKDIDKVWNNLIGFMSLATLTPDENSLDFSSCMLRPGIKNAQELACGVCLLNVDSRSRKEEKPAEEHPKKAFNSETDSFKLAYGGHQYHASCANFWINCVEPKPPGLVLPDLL
UniProt Q9NZ72: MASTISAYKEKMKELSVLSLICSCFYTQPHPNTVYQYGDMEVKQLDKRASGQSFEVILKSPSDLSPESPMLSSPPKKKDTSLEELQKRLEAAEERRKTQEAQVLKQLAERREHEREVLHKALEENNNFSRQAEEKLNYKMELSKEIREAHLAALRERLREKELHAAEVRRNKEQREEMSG
UniProt Q7RTN6: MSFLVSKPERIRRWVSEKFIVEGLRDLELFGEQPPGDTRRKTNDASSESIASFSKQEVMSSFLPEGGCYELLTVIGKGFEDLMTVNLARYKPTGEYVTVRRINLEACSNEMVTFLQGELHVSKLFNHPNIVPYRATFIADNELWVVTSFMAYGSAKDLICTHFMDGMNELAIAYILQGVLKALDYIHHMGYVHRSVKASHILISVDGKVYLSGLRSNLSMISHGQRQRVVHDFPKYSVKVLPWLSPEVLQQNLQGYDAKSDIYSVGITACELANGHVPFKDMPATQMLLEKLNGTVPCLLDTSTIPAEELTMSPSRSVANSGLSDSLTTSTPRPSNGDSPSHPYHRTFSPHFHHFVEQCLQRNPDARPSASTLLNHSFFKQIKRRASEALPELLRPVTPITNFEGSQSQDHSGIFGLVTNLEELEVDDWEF
UniProt Q5VSL9: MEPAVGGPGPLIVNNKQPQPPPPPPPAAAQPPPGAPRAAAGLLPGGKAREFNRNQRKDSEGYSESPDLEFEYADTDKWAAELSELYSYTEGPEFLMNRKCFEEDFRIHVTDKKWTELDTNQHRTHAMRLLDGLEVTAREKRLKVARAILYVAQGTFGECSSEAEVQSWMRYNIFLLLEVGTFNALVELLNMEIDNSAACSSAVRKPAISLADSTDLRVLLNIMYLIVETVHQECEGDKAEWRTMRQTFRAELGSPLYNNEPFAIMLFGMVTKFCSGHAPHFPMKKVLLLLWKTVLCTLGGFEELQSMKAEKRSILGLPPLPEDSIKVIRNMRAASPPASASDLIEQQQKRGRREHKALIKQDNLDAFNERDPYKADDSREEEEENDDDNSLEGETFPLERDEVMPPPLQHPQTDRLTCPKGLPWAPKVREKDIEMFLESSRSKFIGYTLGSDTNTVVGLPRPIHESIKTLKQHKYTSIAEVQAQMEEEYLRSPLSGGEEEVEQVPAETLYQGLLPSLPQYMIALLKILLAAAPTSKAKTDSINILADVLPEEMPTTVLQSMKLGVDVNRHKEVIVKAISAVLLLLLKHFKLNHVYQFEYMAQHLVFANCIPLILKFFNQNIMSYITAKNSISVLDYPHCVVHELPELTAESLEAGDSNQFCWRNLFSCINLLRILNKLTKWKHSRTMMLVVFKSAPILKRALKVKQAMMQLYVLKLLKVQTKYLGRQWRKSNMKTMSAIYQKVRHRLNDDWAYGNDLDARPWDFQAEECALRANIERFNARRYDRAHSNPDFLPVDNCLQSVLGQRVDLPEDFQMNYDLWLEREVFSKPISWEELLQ
UniProt O14662: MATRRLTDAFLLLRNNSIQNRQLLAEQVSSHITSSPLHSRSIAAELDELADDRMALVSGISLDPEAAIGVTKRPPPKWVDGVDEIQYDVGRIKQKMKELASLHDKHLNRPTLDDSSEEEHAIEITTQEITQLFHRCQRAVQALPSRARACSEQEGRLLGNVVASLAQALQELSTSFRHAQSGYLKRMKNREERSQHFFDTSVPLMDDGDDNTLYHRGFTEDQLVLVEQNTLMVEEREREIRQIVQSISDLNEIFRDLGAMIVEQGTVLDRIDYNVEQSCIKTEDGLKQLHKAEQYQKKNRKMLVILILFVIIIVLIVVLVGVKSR
UniProt P46977: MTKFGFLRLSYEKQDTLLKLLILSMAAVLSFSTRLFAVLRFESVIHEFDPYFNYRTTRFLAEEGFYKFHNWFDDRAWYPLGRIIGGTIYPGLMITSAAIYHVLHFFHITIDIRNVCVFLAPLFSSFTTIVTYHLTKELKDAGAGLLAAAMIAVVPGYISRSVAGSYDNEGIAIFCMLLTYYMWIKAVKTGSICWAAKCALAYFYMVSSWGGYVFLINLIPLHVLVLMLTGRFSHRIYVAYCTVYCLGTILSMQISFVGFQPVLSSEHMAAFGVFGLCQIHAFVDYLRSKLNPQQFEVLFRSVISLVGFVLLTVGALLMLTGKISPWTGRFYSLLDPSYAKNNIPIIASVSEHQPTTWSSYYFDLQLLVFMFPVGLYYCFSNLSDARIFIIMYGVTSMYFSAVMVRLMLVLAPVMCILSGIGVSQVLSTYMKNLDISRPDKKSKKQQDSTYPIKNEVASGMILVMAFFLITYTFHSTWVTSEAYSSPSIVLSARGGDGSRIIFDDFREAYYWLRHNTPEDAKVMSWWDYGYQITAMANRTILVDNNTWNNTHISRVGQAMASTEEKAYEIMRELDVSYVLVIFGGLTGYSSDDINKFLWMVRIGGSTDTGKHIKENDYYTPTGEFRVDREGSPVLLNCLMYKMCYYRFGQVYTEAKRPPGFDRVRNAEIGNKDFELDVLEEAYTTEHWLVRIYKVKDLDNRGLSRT

Experiments:
Test in all cases: log2 fold change, soluble protein after heating vs DMSO (PISA); higher = thermal stabilisation; K562 cells, 10 uM, 30 min; active = over 0.2 and 3.5 SD of the protein, either way, in both replicates (recomputed)
[1] = compound: CC1=C(C=C(C=C1)NC(=O)C2=CC(=CC=C2)C(C)(C)C#N)NC3=CC4=C(C=C3)N=CN(C4=O)C
Method in brief: (§1)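 K562 cells (2×10^6 cells/mL) were treated with 10 μM compound for 30 min, and aliquots were heated for 3 min over 48°C-58°C. Pooled aliquots were extracted in PBS with 0.5% NP-40 at 4°C, and the supernatant after 21,000xg for 90 min was measured by TMTpro 16plex LC-MS/MS with channel sums equalised. Reported thermal stability, relative to control samples and from duplicates, is a log2 fold change.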

[2] = compound: CC1=C(C=C(C=C1)NC(=O)C2=CC(=CC=C2)N(C)C)NC(=O)C3=CC=C(C=C3)O
Method in brief: as §1

[3] = compound: CC1=CC=C(C=C1)SC2=C3C=C(SC3=CN=C2)C(=O)N
Method in brief: as §1

[4] = compound: CC1=NC(=CC=C1)C2=C(N=C(N2)C(C)(C)C)C3=CC4=NC=CN=C4C=C3
Method in brief: as §1

Nexturastat A = compound: CCCCN(Cc1ccc(C(=O)NO)cc1)C(=O)Nc1ccccc1 [Nexturastat A]
Method in brief: as §1

vemurafenib = compound: CCCS(=O)(=O)Nc1ccc(F)c(C(=O)c2c[nH]c3ncc(-c4ccc(Cl)cc4)cc23)c1F [vemurafenib]
Method in brief: as §1

[5] = compound: CCCS(=O)(=O)Nc1ccc(F)c(C(=O)c2c[nH]c3ncc(Cl)cc23)c1F
Method in brief: as §1

[6] = compound: CCCc1cc(C)[nH]c(=O)c1CNC(=O)c1cc(-c2ccnc(N3CCN(C)CC3)c2)cc2c1cnn2C(C)C
Method in brief: as §1

givinostat = compound: CCN(CC)Cc1ccc2cc(COC(=O)Nc3ccc(C(=O)NO)cc3)ccc2c1 [givinostat]
Method in brief: as §1

barasertib = compound: CCN(CCCOc1ccc2c(Nc3cc(CC(=O)Nc4cccc(F)c4)[nH]n3)ncnc2c1)CCOP(=O)(O)O [barasertib]
Method in brief: as §1

[7] = compound: CC[C@@H]1C(=O)N(C)c2cnc(Nc3ccc(C(=O)NC4CCN(C)CC4)cc3OC)nc2N1C1CCCC1
Method in brief: as §1

volasertib = compound: CC[C@@H]1C(=O)N(C)c2cnc(Nc3ccc(C(=O)N[C@H]4CC[C@H](N5CCN(CC6CC6)CC5)CC4)cc3OC)nc2N1C(C)C [volasertib]
Method in brief: as §1

[8] = compound: CC[C@H](C)N1C=C(C2=C(C=C(C=C21)C3=CN=C(C=C3)N4CCNCC4)C(=O)NCC5=C(C=C(NC5=O)C)C)C
Method in brief: as §1

epoxomicin = compound: CC[C@H](C)[C@@H](C(=O)N[C@@H]([C@@H](C)O)C(=O)N[C@@H](CC(C)C)C(=O)[C@]1(CO1)C)NC(=O)[C@H]([C@@H](C)CC)N(C)C(=O)C [epoxomicin]
Method in brief: as §1

[9] = compound: CCn1c(C(=O)N(C2CC2)C2CC2)cc2c3c(ncn3C)c(Nc3cc(C)n(C)n3)nc21
Method in brief: as §1

[10] = compound: CCn1cc(-c2ccnc3[nH]c(-c4cccc(CN(C)C)c4)cc23)c(-c2ccc(NC(=O)N(C)C)cc2)n1
Method in brief: as §1

[11] = compound: CN(C)CC(=O)Nc1ccc2[nH]c(=O)c3ccccc3c2c1
Method in brief: as §1

rosiglitazone = compound: CN(CCOC1=CC=C(C=C1)C[C@H]2C(=O)NC(=O)S2)C3=CC=CC=N3 (racemic) [rosiglitazone]
Method in brief: as §1

[12] = compound: CN1C2=C(C3=C1C(=O)N(N=C3)CC4=CC(=CC=C4)N)SC(=C2)S(=O)C
Method in brief: as §1

[13] = compound: CN1CCC(CNc2ccc3ncc(-c4cccc(OC(F)(F)F)c4)n3n2)CC1
Method in brief: as §1

Measured: log2 fold change

STX6 (UniProt O43752)
inactive: [1] -0.009 | [2] 0.034 | [3] 0.01 | [4] -0.172 | Nexturastat A 0.036 | vemurafenib -0.038 | [5] -0.014 | [6] -0.027 | givinostat 0.002 | barasertib 0.06 | [7] 0.01 | volasertib -0.037 | [8] 0.016 | epoxomicin 0.063 | [9] -0.029 | [10] -0.061 | [11] -0.014 | rosiglitazone 0.024 | [12] -0.063 | [13] -0.119

SYPL1 (UniProt Q16563)
inactive: [1] -0.001 | [2] 0.001 | [3] -0.021 | [4] -0.022 | Nexturastat A 0 | vemurafenib 0.041 | [5] 0.004 | [6] -0.137 | givinostat -0.024 | barasertib -0.042 | [7] 0.066 | volasertib -0.184 | [8] -0.029 | epoxomicin -0.031 | [9] 0.012 | [10] -0.129 | [11] -0.03 | rosiglitazone -0.011 | [12] -0.065 | [13] 0.147

SUMF2 (UniProt Q8NBJ7)
inactive: [1] 0.002 | [2] 0.003 | [3] 0.028 | [4] -0.027 | Nexturastat A 0.004 | vemurafenib 0.031 | [5] -0.048 | [6] -0.054 | givinostat -0.041 | barasertib -0.008 | [7] -0.012 | volasertib -0.036 | [8] 0.029 | epoxomicin -0.009 | [9] 0.035 | [10] 0.02 | [11] -0.04 | rosiglitazone 0.008 | [12] 0.026 | [13] 0.016

SUPV3L1 (UniProt Q8IYB8)
inactive: [1] 0.022 | [2] 0.012 | [3] 0.008 | [4] 0.067 | Nexturastat A -0.094 | vemurafenib 0.018 | [5] 0.016 | [6] -0.035 | givinostat 0 | barasertib 0.028 | [7] -0.021 | volasertib -0.185 | [8] 0.025 | epoxomicin -0.001 | [9] -0.021 | [10] -0.004 | [11] -0.008 | rosiglitazone 0.022 | [12] -0.004 | [13] 0.005

STXBP3 (UniProt O00186)
inactive: [1] 0.038 | [2] -0.059 | [3] 0.013 | [4] 0.047 | Nexturastat A 0.064 | vemurafenib 0.089 | [5] 0.087 | [6] 0.014 | givinostat 0.062 | barasertib 0.067 | [7] -0.031 | volasertib -0.335 | [8] 0.075 | epoxomicin 0.014 | [9] -0.139 | [10] -0.096 | [11] 0.034 | rosiglitazone 0.097 | [12] 0.069 | [13] -0.087

TAGLN2 isoform 2 (UniProt P37802)
inactive: [1] 0.012 | [2] -0.02 | [3] 0.033 | [4] 0.057 | Nexturastat A -0.033 | vemurafenib 0.048 | [5] 0.048 | [6] 0.025 | givinostat -0.01 | barasertib 0.056 | [7] -0.064 | volasertib -0.067 | [8] 0.024 | epoxomicin 0.028 | [9] -0.01 | [10] -0.048 | [11] 0.003 | rosiglitazone -0.013 | [12] -0.055 | [13] -0.01

TARBP2 (UniProt Q15633)
inactive: [1] -0.199 | [2] -0.039 | [3] -0.052 | [4] -0.058 | Nexturastat A 0.255 | vemurafenib -0.036 | [5] -0.095 | [6] -0.005 | givinostat -0.053 | barasertib 0.003 | [7] 0.068 | volasertib -0.087 | [8] 0.042 | epoxomicin -0.092 | [9] -0.079 | [10] 0.048 | [11] -0.091 | rosiglitazone 0 | [12] 0.155 | [13] 0.068

STXBP1 (UniProt P61764)
inactive: [1] 0.025 | [2] -0.033 | [3] -0.003 | [4] 0.081 | Nexturastat A -0.142 | vemurafenib 0.09 | [5] 0.14 | [6] 0.139 | givinostat 0.111 | barasertib 0.031 | [7] -0.03 | volasertib -0.432 | [8] 0.142 | epoxomicin 0.057 | [9] -0.102 | [10] -0.114 | [11] 0.213 | rosiglitazone 0.045 | [12] -0.104 | [13] -0.315

SYNRG (UniProt Q9UMZ2)
inactive: [1] -0.012 | [2] -0.016 | [3] 0 | [4] -0.014 | Nexturastat A 0.003 | vemurafenib 0.036 | [5] 0.052 | [6] -0.126 | givinostat -0.019 | barasertib 0.015 | [7] -0.003 | volasertib -0.099 | [8] 0.043 | epoxomicin -0.025 | [9] 0.023 | [10] -0.05 | [11] -0.004 | rosiglitazone 0.061 | [12] -0.029 | [13] 0.009

Four neighbouring entries from above, for reference:
SUPV3L1 (UniProt Q8IYB8)
inactive: [1] 0.022 | [2] 0.012 | [3] 0.008 | [4] 0.067 | Nexturastat A -0.094 | vemurafenib 0.018 | [5] 0.016 | [6] -0.035 | givinostat 0 | barasertib 0.028 | [7] -0.021 | volasertib -0.185 | [8] 0.025 | epoxomicin -0.001 | [9] -0.021 | [10] -0.004 | [11] -0.008 | rosiglitazone 0.022 | [12] -0.004 | [13] 0.005

STXBP3 (UniProt O00186)
inactive: [1] 0.038 | [2] -0.059 | [3] 0.013 | [4] 0.047 | Nexturastat A 0.064 | vemurafenib 0.089 | [5] 0.087 | [6] 0.014 | givinostat 0.062 | barasertib 0.067 | [7] -0.031 | volasertib -0.335 | [8] 0.075 | epoxomicin 0.014 | [9] -0.139 | [10] -0.096 | [11] 0.034 | rosiglitazone 0.097 | [12] 0.069 | [13] -0.087

TAGLN2 isoform 2 (UniProt P37802)
inactive: [1] 0.012 | [2] -0.02 | [3] 0.033 | [4] 0.057 | Nexturastat A -0.033 | vemurafenib 0.048 | [5] 0.048 | [6] 0.025 | givinostat -0.01 | barasertib 0.056 | [7] -0.064 | volasertib -0.067 | [8] 0.024 | epoxomicin 0.028 | [9] -0.01 | [10] -0.048 | [11] 0.003 | rosiglitazone -0.013 | [12] -0.055 | [13] -0.01

TARBP2 (UniProt Q15633)
inactive: [1] -0.199 | [2] -0.039 | [3] -0.052 | [4] -0.058 | Nexturastat A 0.255 | vemurafenib -0.036 | [5] -0.095 | [6] -0.005 | givinostat -0.053 | barasertib 0.003 | [7] 0.068 | volasertib -0.087 | [8] 0.042 | epoxomicin -0.092 | [9] -0.079 | [10] 0.048 | [11] -0.091 | rosiglitazone 0 | [12] 0.155 | [13] 0.068

More results follow:

STMN3 (UniProt Q9NZ72)
inactive: [1] 0.055 | [2] -0.092 | [3] -0.014 | [4] 0.048 | Nexturastat A 0.107 | vemurafenib 0.007 | [5] -0.064 | [6] -0.018 | givinostat 0 | barasertib 0.017 | [7] 0.023 | volasertib 0.087 | [8] -0.011 | epoxomicin 0.121 | [9] 0.109 | [10] 0.057 | [11] -0.031 | rosiglitazone -0.019 | [12] 0 | [13] -0.011

STRADA (UniProt Q7RTN6)
inactive: [1] 0.037 | [2] -0.012 | [3] -0.067 | [4] 0.006 | Nexturastat A -0.103 | vemurafenib -0.02 | [5] -0.021 | [6] -0.005 | givinostat 0.02 | barasertib -0.023 | [7] 0.043 | volasertib 0.003 | [8] 0.003 | epoxomicin 0.099 | [9] 0.011 | [10] -0.083 | [11] -0.013 | rosiglitazone 0.01 | [12] -0.039 | [13] 0.09

TAPT1 (UniProt Q6NXT6)
inactive: [1] -0.051 | [2] -0.015 | [3] -0.017 | [4] -0.033 | Nexturastat A -0.033 | vemurafenib -0.017 | [5] 0.012 | [6] -0.036 | givinostat 0.017 | barasertib 0 | [7] 0 | volasertib 0.045 | [8] -0.04 | epoxomicin -0.058 | [9] -0.014 | [10] 0.033 | [11] 0.015 | rosiglitazone 0.046 | [12] -0.028 | [13] 0.007

STRIP1 (UniProt Q5VSL9)
inactive: [1] 0.076 | [2] -0.009 | [3] 0.06 | [4] -0.012 | Nexturastat A -0.023 | vemurafenib 0.066 | [5] 0.116 | [6] 0.129 | givinostat -0.087 | barasertib 0.02 | [7] -0.015 | volasertib -0.13 | [8] 0.03 | epoxomicin 0.065 | [9] -0.026 | [10] 0.003 | [11] 0.016 | rosiglitazone 0.067 | [12] -0.008 | [13] 0.039

SUPT4H1 (UniProt P63272)
inactive: [1] 0.026 | [2] -0.066 | [3] 0.042 | [4] 0.044 | Nexturastat A -0.031 | vemurafenib 0.036 | [5] 0.013 | [6] 0.223 | givinostat -0.008 | barasertib 0.035 | [7] -0.05 | volasertib -0.089 | [8] 0.093 | epoxomicin 0.059 | [9] -0.016 | [10] -0.134 | [11] 0.131 | rosiglitazone -0.037 | [12] 0.049 | [13] -0.175

STX16 isoform 2 (UniProt O14662)
inactive: [1] -0.071 | [2] -0.021 | [3] 0.081 | [4] 0.05 | Nexturastat A 0.139 | vemurafenib 0.034 | [5] 0.024 | [6] 0.122 | givinostat -0.001 | barasertib 0.005 | [7] 0 | volasertib -0.108 | [8] 0.06 | epoxomicin -0.11 | [9] 0.021 | [10] -0.034 | [11] 0.022 | rosiglitazone 0.051 | [12] 0.048 | [13] -0.026

STT3A (UniProt P46977)
inactive: [1] -0.012 | [2] 0.021 | [3] -0.026 | [4] -0.009 | Nexturastat A -0.127 | vemurafenib -0.022 | [5] 0.015 | [6] 0.012 | givinostat -0.039 | barasertib -0.005 | [7] -0.015 | volasertib 0.014 | [8] -0.025 | epoxomicin 0 | [9] 0.028 | [10] 0.01 | [11] -0.017 | rosiglitazone 0.009 | [12] -0.002 | [13] 0.005
